No constants are given. Whether binding was seen depends on the method and setting. Binding seen in cells or lysates may run through a third protein. Some binding calls cover weakened binding; strength is not graded here.

Amino acid sequences for entries named in this document (tags omitted). Residues count along the entry.
UniProt Q9EP80: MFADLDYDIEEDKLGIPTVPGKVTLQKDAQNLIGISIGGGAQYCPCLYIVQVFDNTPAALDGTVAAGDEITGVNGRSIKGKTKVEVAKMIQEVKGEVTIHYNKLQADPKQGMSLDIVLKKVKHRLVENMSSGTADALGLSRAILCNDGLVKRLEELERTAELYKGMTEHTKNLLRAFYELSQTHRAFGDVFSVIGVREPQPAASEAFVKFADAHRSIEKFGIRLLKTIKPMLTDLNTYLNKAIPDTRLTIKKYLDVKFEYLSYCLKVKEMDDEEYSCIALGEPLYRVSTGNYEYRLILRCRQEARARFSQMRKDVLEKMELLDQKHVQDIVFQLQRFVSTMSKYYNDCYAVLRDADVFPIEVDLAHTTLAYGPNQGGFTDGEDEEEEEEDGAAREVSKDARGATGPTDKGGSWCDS
UniProt P19491, residues 22-883: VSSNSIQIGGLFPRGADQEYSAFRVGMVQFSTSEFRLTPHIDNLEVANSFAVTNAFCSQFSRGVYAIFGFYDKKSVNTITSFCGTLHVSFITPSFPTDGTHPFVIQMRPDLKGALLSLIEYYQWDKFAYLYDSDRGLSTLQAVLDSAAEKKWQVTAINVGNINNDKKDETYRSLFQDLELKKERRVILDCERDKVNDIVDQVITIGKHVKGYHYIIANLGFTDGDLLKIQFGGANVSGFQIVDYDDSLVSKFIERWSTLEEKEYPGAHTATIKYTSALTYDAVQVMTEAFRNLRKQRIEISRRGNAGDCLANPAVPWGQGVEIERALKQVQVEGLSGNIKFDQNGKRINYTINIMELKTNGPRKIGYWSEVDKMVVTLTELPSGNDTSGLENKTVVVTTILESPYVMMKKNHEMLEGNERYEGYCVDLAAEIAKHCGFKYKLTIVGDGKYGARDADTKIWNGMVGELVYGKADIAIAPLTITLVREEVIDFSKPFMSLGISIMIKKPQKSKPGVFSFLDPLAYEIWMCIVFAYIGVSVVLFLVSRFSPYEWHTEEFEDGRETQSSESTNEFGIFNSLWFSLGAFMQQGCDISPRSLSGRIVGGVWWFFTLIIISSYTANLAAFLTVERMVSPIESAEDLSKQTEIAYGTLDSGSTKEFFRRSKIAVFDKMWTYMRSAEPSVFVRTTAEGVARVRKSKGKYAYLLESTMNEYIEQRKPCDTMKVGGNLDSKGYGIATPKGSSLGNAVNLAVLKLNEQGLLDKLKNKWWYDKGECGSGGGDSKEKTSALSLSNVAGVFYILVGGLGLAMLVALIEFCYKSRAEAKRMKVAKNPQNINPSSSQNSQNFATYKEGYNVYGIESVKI

This passage reports binding results from paper PMC6315034.

The experiment has as its target protein interacting with C kinase 1 (not stated (endogenous in rat or mouse primary cortical neurons)) (UniProt Q9EP80). The experiment can be described thus: co-IP; lysates of primary cortical neurons; antibody (anti-GluR2, anti-NKAα1 or anti-PICK1) overnight at 4 °C, protein G-agarose 4 h at room temperature, three washes with lysis buffer, Western blot; for GluR2 with PICK1 the neurons were untreated or treated with glutamate (100 µM) + glycine (10 µM) for 30 min, with or without DR-Ab pretreatment.

In the case of “AMPA receptor subunit GluR2 (from UniProt P19491 22-883)”, the binding entry is given as “binds”.
